{"sequences": {"note": "The chains behind the UniProt entries cited, without tags or fusion partners. Residues count along the entry.", "UniProt Q8IB24": "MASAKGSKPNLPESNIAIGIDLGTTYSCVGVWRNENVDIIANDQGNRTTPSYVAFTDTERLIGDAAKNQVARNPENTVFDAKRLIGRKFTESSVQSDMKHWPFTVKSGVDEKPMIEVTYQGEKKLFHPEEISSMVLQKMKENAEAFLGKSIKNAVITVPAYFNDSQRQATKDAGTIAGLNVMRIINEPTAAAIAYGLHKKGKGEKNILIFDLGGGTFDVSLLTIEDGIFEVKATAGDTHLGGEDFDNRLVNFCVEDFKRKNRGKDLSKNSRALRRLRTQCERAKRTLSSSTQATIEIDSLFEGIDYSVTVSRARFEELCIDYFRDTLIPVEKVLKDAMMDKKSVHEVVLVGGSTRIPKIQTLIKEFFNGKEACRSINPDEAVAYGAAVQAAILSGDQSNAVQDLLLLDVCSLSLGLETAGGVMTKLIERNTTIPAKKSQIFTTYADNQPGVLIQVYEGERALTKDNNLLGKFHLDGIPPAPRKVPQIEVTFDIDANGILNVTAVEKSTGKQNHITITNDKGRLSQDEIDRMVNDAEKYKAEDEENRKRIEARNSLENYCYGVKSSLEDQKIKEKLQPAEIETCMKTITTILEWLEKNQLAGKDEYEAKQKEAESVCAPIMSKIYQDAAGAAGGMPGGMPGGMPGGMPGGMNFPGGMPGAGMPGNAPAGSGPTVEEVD", "UniProt P02769, residues 25-607": "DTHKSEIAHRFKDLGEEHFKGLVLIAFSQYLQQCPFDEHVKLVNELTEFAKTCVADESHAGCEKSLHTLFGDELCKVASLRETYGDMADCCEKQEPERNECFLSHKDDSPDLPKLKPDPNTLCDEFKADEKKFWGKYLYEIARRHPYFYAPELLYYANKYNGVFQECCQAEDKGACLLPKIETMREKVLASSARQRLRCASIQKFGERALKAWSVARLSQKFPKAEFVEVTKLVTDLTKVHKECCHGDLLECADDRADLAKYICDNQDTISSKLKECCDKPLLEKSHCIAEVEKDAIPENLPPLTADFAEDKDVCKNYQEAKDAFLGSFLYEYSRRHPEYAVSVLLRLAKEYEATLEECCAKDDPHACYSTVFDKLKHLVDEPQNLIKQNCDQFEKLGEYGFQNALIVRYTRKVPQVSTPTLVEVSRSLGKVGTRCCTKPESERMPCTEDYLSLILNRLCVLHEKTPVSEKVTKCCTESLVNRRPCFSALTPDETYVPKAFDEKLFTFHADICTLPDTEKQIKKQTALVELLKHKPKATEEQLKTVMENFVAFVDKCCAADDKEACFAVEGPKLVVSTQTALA"}, "source": "paper PMC9513230", "about": "“Inhibition of Plasmodium falciparum Hsp70-Hop partnership by 2-phenylthynesulfonamide” (Frontiers in Molecular Biosciences, 2022)", "binders": {"B1": {"name": "Plasmodium falciparum Hsp90-Hsp70 organizing protein (protein, UniProt Q8ILC1 1-564)", "chain": "MVNKEEAQRLKELGNKCFQEGKYEEAVKYFSDAITNDPLDHVLYSNLSGAFASLGRFYEALESANKCISIKKDWPKGYIRKGCAEHGLRQLSNAEKTYLEGLKIDPNNKSLQDALSKVRNENMLENAQLIAHLNNIIENDPQLKSYKEENSNYPHELLNTIKSINSNPMNIRIILSTCHPKISEGVEKFFGFKFTGEGNDAEERQRQQREEEERRKKKEEEERKKKEEEEMKKQNRTPEQIQGDEHKLKGNEFYKQKKFDEALKEYEEAIQINPNDIMYHYNKAAVHIEMKNYDKAVETCLYAIENRYNFKAEFIQVAKLYNRLAISYINMKKYDLAIEAYRKSLVEDNNRATRNALKELERRKEKEEKEAYIDPDKAEEHKNKGNEYFKNNDFPNAKKEYDEAIRRNPNDAKLYSNRAAALTKLIEYPSALEDVMKAIELDPTFVKAYSRKGNLHFFMKDYYKALQAYNKGLELDPNNKECLEGYQRCAFKIDEMSKSEKVDEEQFKKSMADPEIQQIISDPQFQIILQKLNENPNSISEYIKDPKIFNGLQKLIAAGILKVR"}}, "key": {"[1]": {"biological_target": "Plasmodium falciparum Hsp70-1 (Plasmodium falciparum) (UniProt Q8IB24)", "experiment": "ELISA; PfHsp70-1 coated on the plate, PfHop as analyte; with 25 uM PES; both purified"}, "[2]": {"biological_target": "Plasmodium falciparum Hsp70-1 (Plasmodium falciparum) (UniProt Q8IB24)", "experiment": "ELISA; PfHsp70-1 and PfHop, one coated on the plate, the other as analyte; with 25 uM ATP; both purified"}, "[3]": {"biological_target": "BSA (UniProt P02769)", "experiment": "ELISA; both purified"}}, "note": "Results are given in words; binding and its absence hold for the method and conditions named."}
{"binder": "B1", "values": [{"measurement": "binding", "setting": "[1]", "value": "no binding (condition: with 25 µM PES)"}, {"measurement": "binding", "setting": "[2]", "value": "no binding (condition: with 25 µM ATP)"}, {"measurement": "binding", "setting": "[3]", "value": "no binding"}]}
